From patent US20160039903A1 (Stanford University, published 2016)
Results are given in words; binding and its absence hold for the method and conditions named. Some binding calls cover weakened binding; strength is not graded here.

Protein sequences, listed by entry. Tags and fused reporters are not part of them. Lines headed by an entry give the natural chain unless they say otherwise; changes in a name come on top.
UniProt Q9NZQ7: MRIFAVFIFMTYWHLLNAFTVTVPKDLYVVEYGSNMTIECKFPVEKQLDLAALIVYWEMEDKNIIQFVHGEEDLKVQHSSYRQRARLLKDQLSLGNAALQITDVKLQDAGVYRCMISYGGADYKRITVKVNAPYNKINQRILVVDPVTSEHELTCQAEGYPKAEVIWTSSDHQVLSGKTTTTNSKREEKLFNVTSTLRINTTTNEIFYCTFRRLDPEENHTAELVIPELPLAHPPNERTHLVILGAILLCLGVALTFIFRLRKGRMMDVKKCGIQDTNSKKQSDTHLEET

B1: G1 4-1 (designed binder)
PD-1 variant IgV domain: DSPDRPWNPPTFSPALLVVTEGDNATFTCSFSNTSESFRLVWHRESPGYETDTLASFPEDRSTPLPDCRFRVTQLPNGRDFHMSVVRARRNDSGTYVCGAIAFHPVIQIKESLRAELRVTER
notes: also called Generation 1, clone 4-1
B2: G1 4-4 (designed binder)
PD-1 variant IgV domain: DSPDRPWNPPTFSPALLVVTEGDNATFTCSFSNTSESFRLVWHRESPNNHAYTLALFPEDRSLPFPDCRFRVTQLPNGRDFHMSVVRARRNDSGTYICGAITFDPRIQIKESLRAELRVTER
notes: also called Generation 1, clone 4-4

Molecular target: human PD-L1 displayed on yeast (residues 19-132) (human; S. cerevisiae) (UniProt Q9NZQ7)
Assay: competition flow cytometry on yeast displaying human PD-L1; competitor probe: labeled native PD-1 streptavidin tetramer

Binder | binding
B1 | binds
B2 | binds
